The shares of active, inactive and inconclusive entries below differ from those in the screen. A potency beside an inconclusive call is a rough fit, not a confirmed value. The source made the active and inactive calls. The calls were made as follows: active = hit-call score of the fitted dose curve at least 0.9, where 1 is the maximum; inconclusive = response in the unintended direction; inactive = score below 0.9.
Assay: TOX21_p53_BLA_p5_viability: Viability Assessment in the Tox21 HCT-116 p53 Agonism Beta-lactamase Assay, Phase 5 (AID 2283600)
In short: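 HCT-116 p53 beta-lactamase reporter cells, 4000/well, were exposed to compound (pin transfer, 217-fold dilution) for 16 hours at 37C. Cellular ATP was read by CellTiter-Glo luminescence after 30 min at room temperature.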
For `CCc1cccc(N(C)C(N)=Nc2cccc3ccccc23)c1`, the AC50 was inconclusive: 23 µM. For `C[C@H](CS)C(=O)N1CCC[C@H]1C(=O)O`, the outcome was “inactive”. In the case of `COc1ccc2nc(NC(=O)Nc3ccccc3)sc2c1`, the AC50 is reported as inconclusive: 0.000844 µM. In the case of `O=C(O)c1cc(O)c2c(c1)C(=O)c1cccc(O)c1C2=O`, the outcome is reported as “inactive”. In the case of `Cc1c(C(=O)NCCO)[n+](=O)c2ccccc2n1[O-]`, the AC50 is reported as inconclusive: 23 µM. In the case of `Nc1nnnn1-c1ccccc1`, the outcome is reported as “inactive”. In the case of `Cc1ccc2c(ccc3ccccc32)c1`, the AC50 is reported as inconclusive: 46.2 µM. In the case of `COc1cccc(O)c1O`, the AC50 is reported as inconclusive: 47.6 µM. With `C[N+]1(C)CCC(=C(c2ccccc2)c2ccccc2)CC1` the outcome was “inactive”. With `CCCCCCCCCCC[C@@H](C[C@@H]1OC(=O)[C@H]1CCCCCC)OC(=O)[C@H](CC(C)C)NC=O` the AC50 was inconclusive: 6.16 µM. For `CCCCC(CC)CN` (stereo not given), the AC50 was inconclusive: 0.000722 µM. For `O=C(O)[C@@H]1[C@H]2C[C@H]3c4[nH]c5ccccc5c4CCN3C[C@@H]2CC[C@@H]1O`, the AC50 was inconclusive: 10.3 µM. In the case of `CCOc1cc(CC(=O)N[C@@H](CC(C)C)c2ccccc2N2CCCCC2)ccc1C(=O)O`, the AC50 is reported as inconclusive: 10.3 µM. With `CC1=NS(=O)(=O)c2cc(Cl)ccc2N1` the AC50 was inconclusive: 23 µM. For `CO[C@@H]1[C@@H](O[C@@H]2O[C@H](C)[C@@H](O[C@H]3C[C@](C)(O)[C@@H](O)[C@H](C)O3)[C@H](N(C)C)[C@H]2O)[C@H](CC=O)C[C@@H](C)[C@H](O[C@H]2CC[C@H](N(C)C)[C@@H](C)O2)/C=C\C=C\C[C@@H](C)OC(=O)C[C@H]1O`, the AC50 was inconclusive: 10.3 µM.

Reference: PubChem BioAssay (EPA / NIEHS)
